Data as given in PubChem BioAssay AID1259308 (NCATS, 2017)
Aim: 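Genes whose loss raises luciferase production in HEK293 cells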 (primary screen). Cells: human HEK293 embryonic kidney cells stably expressing firefly luciferase (HEK-CMV-Luc2-Hygro). Reagent: single siRNA against human genes, 0.8 pmol siRNA per well. Timing: 72 h. Measured: 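Reporter luminescence and viable-cell signal on separate replicate plates, given as percent of non-targeting control and median/MAD z-scores, plus per-cell luciferase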. Scale: total luciferase, z-score and total luciferase, % of control: higher = more reporter protein produced; luciferase per cell, z-score: higher = more reporter output per viable cell; viable cells, % of control: higher = more viable cells. Call rule: 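An siRNA counts as active if its total luciferase robust z-score exceeds 3; genes with two or more such siRNAs out of three were retested with fresh siRNAs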. Calls: active = raised luciferase; inactive = no rise.
In all, the deposit lists about 59,000 reagents; this is an unselected part. Of all reagents, about 1,510 (2.6%) got an active call. 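Calls use total luciferase alone and ignore viability, so some active siRNAs may act by altering cell number.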 The numbers tell different reagents against one gene apart. No sequences are given here.

| Gene | reagent no. | total luciferase, z-score | total luciferase, % of control | luciferase per cell, z-score | viable cells, % of control | outcome |
| --- | --- | --- | --- | --- | --- | --- |
| RFX1 (regulatory factor X1) | 1 | -0.148 | 78.9 | 0.503 | 77.3 | inactive |
| RFX1 (regulatory factor X1) | 2 | 0.436 | 90.6 | 0.678 | 84.6 | inactive |
| RFX1 (regulatory factor X1) | 3 | 1.12 | 104 | 1.92 | 70.1 | inactive |
| MTUS2 (microtubule associated scaffold protein 2) | 1 | -0.139 | 79.1 | 0.368 | 80.3 | inactive |
| MTUS2 (microtubule associated scaffold protein 2) | 2 | 0.917 | 100 | 1.11 | 83.5 | inactive |
| MTUS2 (microtubule associated scaffold protein 2) | 3 | -0.798 | 66 | -0.721 | 89.2 | inactive |
| DCPS (decapping enzyme, scavenger) | 1 | -0.245 | 77 | 0.234 | 80.9 | inactive |
| DCPS (decapping enzyme, scavenger) | 2 | 0.683 | 95.5 | 0.0273 | 106 | inactive |
| DCPS (decapping enzyme, scavenger) | 3 | 2.64 | 134 | 3.05 | 67.3 | inactive |
| LOC728417 | 1 | -0.234 | 77.2 | -0.581 | 101 | inactive |
| LOC728417 | 2 | 1.46 | 111 | 0.995 | 95.3 | inactive |
| LOC728417 | 3 | -0.251 | 76.9 | -0.321 | 93.5 | inactive |
| UPK3B (uroplakin 3B) | 1 | 0.863 | 99 | 0.787 | 90 | inactive |
| UPK3B (uroplakin 3B) | 2 | 3.02 | 142 | 2.66 | 78.6 | active |
| UPK3B (uroplakin 3B) | 3 | 1.99 | 121 | 2.96 | 62.3 | inactive |
| EVX1 (even-skipped homeobox 1) | 1 | -0.195 | 78 | -0.611 | 102 | inactive |
| EVX1 (even-skipped homeobox 1) | 2 | -1.16 | 58.8 | -1.67 | 102 | inactive |
| EVX1 (even-skipped homeobox 1) | 3 | 0.143 | 84.7 | -0.138 | 98.2 | inactive |
| NUTM2G (NUT family member 2G) | 1 | 0.243 | 86.7 | 0.235 | 91.1 | inactive |
| NUTM2G (NUT family member 2G) | 2 | 0.0697 | 83.3 | 0.124 | 90.1 | inactive |
| NUTM2G (NUT family member 2G) | 3 | 3.63 | 154 | 1.47 | 117 | active |
| CCDC188 (coiled-coil domain containing 188) | 1 | 2.18 | 125 | 1.72 | 89.1 | inactive |
| CCDC188 (coiled-coil domain containing 188) | 2 | 2.14 | 125 | 1.47 | 94.4 | inactive |
| CCDC188 (coiled-coil domain containing 188) | 3 | -0.0385 | 81.1 | -0.453 | 102 | inactive |
| SRP72 (signal recognition particle 72) | 1 | 0.653 | 94.9 | 0.588 | 90.8 | inactive |
| SRP72 (signal recognition particle 72) | 2 | -0.528 | 71.4 | -0.588 | 93.1 | inactive |
| SRP72 (signal recognition particle 72) | 3 | -0.54 | 71.1 | -0.558 | 92.1 | inactive |
| DKK2 (dickkopf Wnt signaling pathway inhibitor 2) | 1 | -0.912 | 63.8 | -0.0491 | 72.2 | inactive |
| DKK2 (dickkopf Wnt signaling pathway inhibitor 2) | 2 | 1.23 | 106 | 0.448 | 106 | inactive |
| DKK2 (dickkopf Wnt signaling pathway inhibitor 2) | 3 | 0.997 | 102 | 0.989 | 87.6 | inactive |
| ACTR1B (actin related protein 1B) | 1 | -0.0208 | 81.5 | -0.812 | 113 | inactive |
| ACTR1B (actin related protein 1B) | 2 | 0.64 | 94.6 | 0.391 | 95.4 | inactive |
| ACTR1B (actin related protein 1B) | 3 | -0.0997 | 79.9 | 0.994 | 68.7 | inactive |
| ZW10 (zw10 kinetochore protein) | 1 | 0.865 | 99.1 | 1.3 | 78.7 | inactive |
| ZW10 (zw10 kinetochore protein) | 2 | 0.115 | 84.2 | -0.293 | 102 | inactive |
| ZW10 (zw10 kinetochore protein) | 3 | 0.145 | 84.8 | -0.267 | 102 | inactive |
| RAB6B (RAB6B, member RAS oncogene family) | 1 | -0.148 | 78.9 | -0.434 | 98.9 | inactive |
| RAB6B (RAB6B, member RAS oncogene family) | 2 | 1.42 | 110 | 1.09 | 92.5 | inactive |
| RAB6B (RAB6B, member RAS oncogene family) | 3 | 0.445 | 90.7 | -0.101 | 104 | inactive |
| SMPD1 (sphingomyelin phosphodiesterase 1) | 1 | 1.48 | 111 | 0.888 | 98.4 | inactive |
| SMPD1 (sphingomyelin phosphodiesterase 1) | 2 | 0.611 | 94 | 0.193 | 99.9 | inactive |
| SMPD1 (sphingomyelin phosphodiesterase 1) | 3 | 0.0971 | 83.8 | -0.226 | 99.4 | inactive |
| HMGA2 (high mobility group AT-hook 2) | 1 | 1.45 | 111 | 1.07 | 93.3 | inactive |
| HMGA2 (high mobility group AT-hook 2) | 2 | 1.71 | 116 | 0.847 | 104 | inactive |
| HMGA2 (high mobility group AT-hook 2) | 3 | -0.774 | 66.5 | -1.01 | 97 | inactive |
| ZNF677 (zinc finger protein 677) | 1 | -0.121 | 79.5 | -0.256 | 95 | inactive |
| ZNF677 (zinc finger protein 677) | 2 | -0.889 | 64.2 | -0.767 | 87.8 | inactive |
| ZNF677 (zinc finger protein 677) | 3 | -0.379 | 74.3 | -0.216 | 87.9 | inactive |
| ELOVL4 (ELOVL fatty acid elongase 4) | 1 | -1.95 | 43 | -2.63 | 96.1 | inactive |
| ELOVL4 (ELOVL fatty acid elongase 4) | 2 | -0.577 | 70.4 | -1.41 | 114 | inactive |
| ELOVL4 (ELOVL fatty acid elongase 4) | 3 | 3.68 | 155 | 2.23 | 96.3 | active |
| NR3C1 (nuclear receptor subfamily 3 group C member 1) | 1 | -0.686 | 68.2 | -0.396 | 84.6 | inactive |
| NR3C1 (nuclear receptor subfamily 3 group C member 1) | 2 | -1.82 | 45.8 | -2.03 | 87.2 | inactive |
| NR3C1 (nuclear receptor subfamily 3 group C member 1) | 3 | 0.982 | 101 | 1.44 | 77.6 | inactive |
| CST9LP1 (cystatin 9-like pseudogene 1) | 1 | -1.41 | 53.9 | -1.28 | 84.4 | inactive |
| CST9LP1 (cystatin 9-like pseudogene 1) | 2 | 0.482 | 91.5 | 0.24 | 96 | inactive |
| CST9LP1 (cystatin 9-like pseudogene 1) | 3 | 0.0531 | 82.9 | 0.642 | 78.3 | inactive |

3 entries already listed, sorted by “viable cells, % of control”, highest first:
| Gene | reagent no. | total luciferase, z-score | total luciferase, % of control | luciferase per cell, z-score | viable cells, % of control | outcome |
| --- | --- | --- | --- | --- | --- | --- |
| NR3C1 (nuclear receptor subfamily 3 group C member 1) | 2 | -1.82 | 45.8 | -2.03 | 87.2 | inactive |
| CST9LP1 (cystatin 9-like pseudogene 1) | 1 | -1.41 | 53.9 | -1.28 | 84.4 | inactive |
| NR3C1 (nuclear receptor subfamily 3 group C member 1) | 3 | 0.982 | 101 | 1.44 | 77.6 | inactive |
